# Results from patent US11375718B2, “Use of prodigiosin in resisting potyvirus” (priority 2020, dated 2022).
# At least one structure is not confirmed: it was looked up by name or label, or the drawing left a doubt.
# How the values were obtained:
# TMV [1] = settings: prodigiosin preparation of application 201310323749.5; cited from earlier work
# Hsp70 protein [2] = assay: Western blot of Hsp70 protein in plants treated with prodigiosin S3 and then inoculated with PVY; assay type: in vivo, Nicotiana benthamiana; settings: treated with prodigiosin S3 for 3 days, then inoculated with PVY virus for 3 days; vs control group
# [3] = Quantitative proteomics and ubiquitination omics of prodigiosin-treated tobacco leaves; assay type: in vivo, Nicotiana benthamiana; settings: combined analysis of proteome and ubiquitination omics
# Source text: In order to further understand the mechanism of systemic resistance of a plant induced by prodigiosin, the prodigiosin treated Nicotiana benthamiana was used as a target material, the optimal reaction time point of prodigiosin against PVY was selected, and the quantitative proteomics and ubiquitinated nonstandard quantitative proteomics in tobacco leaves were studied by organically combining a series of advanced technologies such as non-standard quantitative technology, high performance liquid chromatography (HPLC) fractionation technology, ubiquitinated peptide enrichment technology and quantitative proteomics technology based on mass spectrometry.
# Extraction of protein. […] The supernatant was discharged, and the precipitate was washed with precooled acetone for three times; the precipitate was re-dissolved (8 M urea) and the protein concentration was determined. […]
# HPLC-MS Analysis. The lyophilized fractions were analyzed by HPLC-MS: dissolved by a mobile phase A phase (0.1% (v/v) formic acid in water) and separated using EASY-nLC 1000 ultra high performance liquid phase system. […]
# Database Search. […] Differential genes and proteins were analyzed by GO enrichment, and KEGG pathway.
# TMV [4] = assay: Induced resistance of tobacco to TMV after leaf application of prodigiosin; assay type: in vivo, Nicotiana tabacum cv. NC89
# Protocol: (§1) The plant material used in this experiment was Nicotiana tabacum cv. NC89, reproduced by our laboratory and cultivated in a greenhouse. Experimental plant culture conditions included: illumination 16 h, temperature 25±1° C., illumination intensity 2000 lux and relative humidity 60%; and dark duration 8 h, temperature 25±1° C. and relative humidity 60%. The nutrient substrate was produced by the Wode nutrient soil processing plant in Shouguang City, Shandong Province, and no additional fertilization was needed during plant growth. The sources of TMV and PVY were preserved by the Plant Protection Research Center of the Institute of Tobacco Research of CAAC (Chinese Academy of Agricultural Sciences), and were propagated and preserved on Nicotiana tabacum cv. NC89 grown in the greenhouse. The prodigiosin S3 was isolated and purified from Serratia marcescens fermentation broth by Plant Protection Research Center of the Institute of Tobacco Research of CAAC.
# Hsp70 protein [5] = assay: Western blot of Hsp70 protein level and total ubiquitination level in prodigiosin S3-treated plants; assay type: in vivo; settings: treated Nicotiana benthamiana
# PVY = assay: Induced resistance of tobacco to PVY after leaf application of prodigiosin; assay type: in vivo, Nicotiana tabacum cv. NC89
# Protocol: as §1
# [6] = 0.05 μg/L applied on tobacco leaf surfaces at 15 L/mu, inoculated 48 h later, observed 14 d after inoculation
smiles,measurement,setting,value
CCCCCC1=C/C(=C/c2[nH]c(-c3ccc[nH]3)cc2OC)N=C1C [prodigiosin],control effect of TMV,TMV [1],more than 70%
same,content of Hsp70 protein,Hsp70 protein [2],significantly lower than that in the control group
same,protein level of Heat shock 70 kDa protein,[3],significantly down-regulated
same,ubiquitination level of Heat shock 70 kDa protein,[3],significantly up-regulated
same,virus biological characteristics of TMV,TMV [4]; [6],inhibit infection and replication of TMV and PVY in the host
same,symptoms of viral disease (TMV),"TMV [4]; 0.05 μg/L, TMV inoculated after 7 days of treatment, control had obvious mosaic disease and leaf deformity",symptoms of viral disease were not obvious
same,level of Hsp70 protein in the host,Hsp70 protein [5],decreases
same,overall ubiquitination level,Hsp70 protein [5],increased
same,virus biological characteristics of PVY,PVY; [6],inhibit infection and replication of TMV and PVY in the host
same,symptoms of viral disease (PVY),"PVY; 0.05 μg/L, PVY inoculated after 7 days of treatment, control had obvious mosaic disease and leaf deformity",symptoms of viral disease were not obvious
